# Measured values taken from PMC6322727.
# By UniProt entry, the sequences of proteins in these tests, tags left out. Residues count along the entry.
# UniProt P25685: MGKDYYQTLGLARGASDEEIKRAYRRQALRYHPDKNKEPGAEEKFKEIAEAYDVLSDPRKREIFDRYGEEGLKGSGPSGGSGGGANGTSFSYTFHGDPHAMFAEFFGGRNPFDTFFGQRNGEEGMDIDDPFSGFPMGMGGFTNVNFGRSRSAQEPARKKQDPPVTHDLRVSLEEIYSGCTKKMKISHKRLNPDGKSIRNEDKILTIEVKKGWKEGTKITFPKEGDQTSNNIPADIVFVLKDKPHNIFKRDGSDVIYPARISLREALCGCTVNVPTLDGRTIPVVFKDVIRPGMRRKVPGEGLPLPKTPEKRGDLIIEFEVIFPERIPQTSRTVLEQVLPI
# UniProt P0DMV8: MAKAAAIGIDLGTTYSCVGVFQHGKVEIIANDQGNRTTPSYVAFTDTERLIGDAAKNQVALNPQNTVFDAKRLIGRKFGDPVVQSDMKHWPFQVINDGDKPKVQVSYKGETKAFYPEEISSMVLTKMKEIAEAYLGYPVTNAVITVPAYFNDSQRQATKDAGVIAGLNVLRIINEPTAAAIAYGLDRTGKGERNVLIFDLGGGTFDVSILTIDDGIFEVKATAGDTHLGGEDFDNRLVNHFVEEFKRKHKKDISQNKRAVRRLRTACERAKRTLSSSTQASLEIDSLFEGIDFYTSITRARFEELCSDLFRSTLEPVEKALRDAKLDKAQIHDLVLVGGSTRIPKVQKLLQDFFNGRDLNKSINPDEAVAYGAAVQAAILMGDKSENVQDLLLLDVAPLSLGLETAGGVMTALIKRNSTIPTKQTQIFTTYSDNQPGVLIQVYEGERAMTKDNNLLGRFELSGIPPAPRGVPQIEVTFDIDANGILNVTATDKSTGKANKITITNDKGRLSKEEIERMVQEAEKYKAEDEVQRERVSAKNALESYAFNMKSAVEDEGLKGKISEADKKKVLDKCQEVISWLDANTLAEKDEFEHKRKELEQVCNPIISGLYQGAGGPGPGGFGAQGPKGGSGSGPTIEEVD
# UniProt Q92598: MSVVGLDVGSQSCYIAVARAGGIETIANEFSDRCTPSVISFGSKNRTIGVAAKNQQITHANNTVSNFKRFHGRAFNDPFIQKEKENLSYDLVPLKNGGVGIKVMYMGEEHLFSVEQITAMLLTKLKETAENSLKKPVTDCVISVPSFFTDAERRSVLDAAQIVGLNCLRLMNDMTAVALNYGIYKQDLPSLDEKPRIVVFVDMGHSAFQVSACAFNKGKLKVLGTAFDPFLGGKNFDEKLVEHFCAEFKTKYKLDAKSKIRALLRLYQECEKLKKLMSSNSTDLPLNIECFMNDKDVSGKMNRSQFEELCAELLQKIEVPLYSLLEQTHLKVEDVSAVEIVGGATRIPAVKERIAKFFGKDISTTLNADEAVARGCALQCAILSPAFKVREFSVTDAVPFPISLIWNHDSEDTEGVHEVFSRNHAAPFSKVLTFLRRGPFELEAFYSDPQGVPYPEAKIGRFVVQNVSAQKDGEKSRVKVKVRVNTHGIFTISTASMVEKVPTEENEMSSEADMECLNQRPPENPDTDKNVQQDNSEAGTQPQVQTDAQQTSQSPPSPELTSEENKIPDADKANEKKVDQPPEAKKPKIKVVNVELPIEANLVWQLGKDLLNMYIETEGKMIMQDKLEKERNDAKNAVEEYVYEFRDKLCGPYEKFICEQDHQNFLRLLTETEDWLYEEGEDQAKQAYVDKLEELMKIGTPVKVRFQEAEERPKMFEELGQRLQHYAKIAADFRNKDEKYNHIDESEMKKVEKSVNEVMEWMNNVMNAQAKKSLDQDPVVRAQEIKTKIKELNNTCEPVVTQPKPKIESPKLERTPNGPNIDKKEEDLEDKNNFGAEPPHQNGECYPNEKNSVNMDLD
# UniProt P27824, residues 21-592: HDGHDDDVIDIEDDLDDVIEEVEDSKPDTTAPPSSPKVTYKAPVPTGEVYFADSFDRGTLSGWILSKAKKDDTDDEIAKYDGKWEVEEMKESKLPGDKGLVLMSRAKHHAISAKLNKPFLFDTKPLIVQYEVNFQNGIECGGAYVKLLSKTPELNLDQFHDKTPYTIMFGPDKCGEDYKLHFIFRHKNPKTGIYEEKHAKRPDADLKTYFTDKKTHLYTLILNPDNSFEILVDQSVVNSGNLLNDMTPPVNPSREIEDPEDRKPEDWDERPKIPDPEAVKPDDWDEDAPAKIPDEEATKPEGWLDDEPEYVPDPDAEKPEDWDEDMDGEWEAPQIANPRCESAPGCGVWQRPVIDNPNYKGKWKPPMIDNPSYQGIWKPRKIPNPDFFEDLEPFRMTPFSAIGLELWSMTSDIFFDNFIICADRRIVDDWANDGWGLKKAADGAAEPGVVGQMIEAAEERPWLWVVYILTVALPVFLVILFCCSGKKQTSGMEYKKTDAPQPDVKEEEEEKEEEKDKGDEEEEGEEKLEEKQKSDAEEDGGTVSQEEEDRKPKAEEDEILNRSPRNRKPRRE
# Molecular target: T1, BioId/DGAT2 fusion protein (Myc-BirA* fused to murine diacylglycerol acyltransferase-2) (murine) (UniProt Q9DCV3)
# T1 sequence: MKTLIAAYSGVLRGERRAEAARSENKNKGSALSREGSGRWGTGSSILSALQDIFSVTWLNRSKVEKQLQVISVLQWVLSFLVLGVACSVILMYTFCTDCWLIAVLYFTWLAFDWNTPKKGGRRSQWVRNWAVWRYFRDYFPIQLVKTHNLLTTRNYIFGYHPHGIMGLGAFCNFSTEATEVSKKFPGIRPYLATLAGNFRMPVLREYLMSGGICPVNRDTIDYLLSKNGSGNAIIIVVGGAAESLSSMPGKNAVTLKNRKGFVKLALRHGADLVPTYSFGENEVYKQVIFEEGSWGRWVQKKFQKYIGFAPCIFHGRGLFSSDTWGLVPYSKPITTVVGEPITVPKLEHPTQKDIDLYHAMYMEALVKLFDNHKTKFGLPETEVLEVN
# Test: proximity labelling; BioId: BioId/DGAT2 expressed in HEK-293T, 50 uM biotin and 0.5 mM oleate for 12 h; biotinylated proteins captured on magnetic streptavidin beads, SDS-PAGE, bands excised, LC-MS/MS; hits not found in control samples
row,Substance,binding
1,DNAJB1 (from UniProt P25685 1-340),binds
2,HSPA1A (from UniProt P0DMV8 1-641),binds
3,HSPH1 (from UniProt Q92598 1-858),binds
4,VCP (from UniProt P55072 1-806),binds
5,calnexin (from UniProt P27824 21-592),binds
6,calreticulin (from UniProt P27797 18-417),binds

# Molecular target: T2, FLAG-DGAT2 (diacylglycerol acyltransferase-2) (murine (said of the DGAT2 in BioId/DGAT2)) (UniProt Q9DCV3)
# T2 sequence: T1 sequence
# Test: affinity purification with mass spectrometry; anti-FLAG agarose immunoprecipitate of HEK-293T cells expressing FL-DGAT2, solubilised with 0.5% CHAPS in PBS, 4 C, eluted with FLAG peptide; mass spectrometry; control: anti-FLAG immunoprecipitate of cells expressing Myc-DGAT2
row,Substance,binding
1,calnexin (from UniProt P27824 21-592),binds

# No constants are given. Whether binding was seen depends on the method and setting. Binding seen in cells or lysates may run through a third protein. These calls come from enrichment with a bait or labelling near it, and not all partners need be listed. Tags and fused reporters may be left off the sequences shown.
